# PubChem BioAssay AID256 (DTP/NCI, 2004)
# The list is a part of this screen's results and no random one: it gathers tests that were run many times, whatever their T/C, doses with no T/C, and many T/C values between a quarter and a half above the control. Further doses and runs are listed elsewhere. T/C gives the treated animals as a percentage of the vehicle group. Some doses have a count of surviving animals in place of a T/C: the source holds a T/C of zero for them, seemingly a mark for toxic or unscored doses. Some survivor counts are full or nearly so, which does not show that the dose was tolerated: survival well below the control is almost never listed, so the zero probably covers shortened survival too. Survivors were counted at the toxicity check, usually on the fifth day, unless a day is given; later deaths do not show. Schedules are NCI's codes, taken here to give the interval after Q, in days (D) or hours (H), and the number of doses after X. Some entries hold several experiments; their values stand side by side, smallest first. For survival time, the PubChem record calls one and a half times the control and up active, and a quarter to a half above the control has no call in these data; cut-offs in other NCI protocols can differ. Some T/C values carry the count of animals alive at the toxicity check (mostly the fifth day); without a count, all were alive then.
# Tested on: CD2F1 mice, L1210 leukemia ip, survival T/C
# Experiment: NCI In Vivo Anticancer Drug Screen. Data for tumor model L1210 Leukemia (intraperitoneal) in CD2F1 (CDF1) mice
# Details: T/C endpoint: mean survival time, higher T/C = longer survival
# Summary of the method: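 Activity against a transplanted murine tumor was judged by comparing the compound group with a vehicle group. The outcome in the treated animals was divided by that in the controls.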
# [1] = dose: 200.0 mg/kg/injection, schedule: Q01DX001 (ip), vehicle: saline with Tween-80
# [2] = dose: 400.0 mg/kg/injection, schedule: Q01DX001 (ip), vehicle: saline with Tween-80
# [3] = dose: 400.0 mg/kg/injection, schedule: Q01DX009 (ip), vehicle: saline
# [4] = dose: 400.0 mg/kg/injection, schedule: Q04DX002 (ip), vehicle: saline
smiles,measurement,setting,value
CC(=O)Nc1cc2c3c(c1)CCN3CCC2,survivor count,"dose: 50.0 mg/kg/injection, schedule: Q01DX001 (ip), vehicle: saline with Tween-80",0 of 6
same,survivor count,"dose: 100.0 mg/kg/injection, schedule: Q01DX001 (ip), vehicle: saline with Tween-80",0 of 6
same,survivor count,[1],0 of 6
same,survivor count,[2],0 of 6
CC[n+]1ccc(Nc2ccc(/C=C/c3ccc4cc(Nc5cc[n+](CC)cc5)ccc4[n+]3CC)cc2)cc1,survivor count,"dose: 20.0 mg/kg/injection, schedule: Q01DX009 (oral), vehicle: saline",4 of 6
CC(C)C(O)c1ccccc1 (stereo unspecified),survivor count,"dose: 200.0 mg/kg/injection, schedule: Q01DX005 (ip), vehicle: saline with Tween-80",2 of 3
same,survivor count,"dose: 400.0 mg/kg/injection, schedule: Q04DX002 (ip), vehicle: saline with Tween-80",0 of 3
NC(CC(=O)NO)C(=O)O (stereo unspecified),T/C,[3],125 % of control
same,T/C,"dose: 800.0 mg/kg/injection, schedule: Q01DX009 (ip), vehicle: saline",135 % of control
CCCCCCCCCCCCCCCC(=O)Nc1ccn(C2OC(CO)C(O)C2O)c(=O)n1 (stereo unspecified),survivor count,"dose: 200.0 mg/kg/injection, schedule: Q01DX009 (ip), vehicle: saline",6 of 6
same,survivor count,"dose: 200.0 mg/kg/injection, schedule: Q04DX002 (ip), vehicle: saline",3 of 3
same,survivor count,[3],10 of 10 and 6 of 6
same,T/C,[4],132 % of control [5 of 6 alive]
same,survivor count,[4],3 of 3
CSc1ccnc2ccccc12,survivor count,"dose: 100.0 mg/kg/injection, schedule: Q01DX009 (ip), vehicle: other",3 of 6
same,survivor count,"dose: 200.0 mg/kg/injection, schedule: Q01DX009 (ip), vehicle: other",5 of 6
Cc1c(N)cccc1F,survivor count,"dose: 100.0 mg/kg/injection, schedule: Q01DX009 (ip), vehicle: saline sonified",6 of 6
same,survivor count,"dose: 200.0 mg/kg/injection, schedule: Q01DX009 (ip), vehicle: saline sonified",1 of 6
same,survivor count,"dose: 400.0 mg/kg/injection, schedule: Q04DX003 (ip), vehicle: saline",1 of 6
CN(C)CCC(=O)c1cccc2ccccc12,survivor count,[1],0 of 6
same,survivor count,[2],0 of 6
